Test results from PMC7260716, “Transcriptional analysis of arogenate dehydratase genes identifies a link between phenylalanine biosynthesis and lignin biosynthesis”.

System: PpHY5 (Pinus pinaster)
Assay: EMSA
Details: EMSA buffer; recombinant protein; label: 5'-biotin; letters put together from the description

Q: Does “ACAACAGACTGGTAAGGCACACGTGCTTCCACGAGATCCACTAACTTGCGCGGGTGTTTACACACCTAACCACTCCGGAGCTTCCATGCT (double strand) [probe A2 (PADT-A 281-370)]” bind?
A: Result: binds

For at least one entry, the source does not settle the construct or the ends of the probe. At least one verdict was read from the data and is not stated in words by the source.
